Values of other authors in patent publication US20110189319A1, “Lifeforce liquid supplement” (priority 2010, published 2011).
Like-named read-outs stand apart in the source and are kept apart here. At least one structure is not confirmed: it was looked up by name or label, or the drawing left a doubt.

Assays:
conscious rats = details: i.c.v., basal conditions
[1] = test system: patients with Alzheimer disease
[2] = test system: patients diagnosed with vascular dementia; details: 500 mg twice per day, baseline and 12-month follow-up
[3] = test system: patients affected by chronic cerebrovasculopathy; details: 1000 mg/day i.m., two cycles of 4 weeks
male mice = details: 150 mg/kg per day orally from 12 up to 24 months
stroke patients = details: scan at 12 weeks (placebo 85%)
[4] = test system: rats with traumatic brain injury
[5] = test system: permanent middle cerebral artery occlusion in rats; details: rats, 2,3,5-triphenyltetrazolium-chloride staining

Row | Structure (SMILES) | TSH, GH, FSH and LH levels (conscious rats) | plasma ACTH levels (conscious rats) | cognitive performance versus placebo ([1]; 1,000 mg/day, 12 weeks, patients with APOE E4) | serum IL-1 beta levels ([1]; mainly after 4 weeks) | cerebral blood flow velocities versus placebo ([1]; transcranial Doppler) | neuropsychological performance versus placebo [2] | attention capabilities versus placebo [3] | memory (reference errors) (male mice) | increase of infarct size measured by MRI (stroke patients; 500 mg daily for 6 weeks) | increase of infarct size measured by MRI (stroke patients; 2,000 mg daily for 6 weeks) | cognitive deficits versus injured saline-treated rats ([4]; eighteen days of administration) | acetylcholine release in dorsal hippocampus and neocortex ([4]; rat, in vivo) | decrease of infarct volume compared to control [5]
1 | C[N+](C)(C)CCOP(=O)(O)OP(=O)([O-])OC[C@H]1O[C@@H](n2ccc(N)nc2=O)[C@H](O)[C@@H]1O [Citicoline, cytidine 5′-diphosphocholine] | did not affect | increased plasma ACTH levels dose- and time-dependently | improved cognitive performance | tended to reduce | increased | did not differ | significant improvements | positive effect on memory | 34% | 2% | significantly less cognitive deficits | increased acetylcholine release | 
2 | COCCOC(=O)C1=C(C)NC(C)=C(C(=O)OC(C)C)C1c1cccc([N+](=O)[O-])c1 (stereo not shown) [nimodipine] |  |  |  |  |  |  |  |  |  |  |  |  | 17%
